# These are yes or no findings as the source states them, for the method shown. Some results given as binding are weak or reduced against the parent protein; the word gives no strength. For part of these data: Sequences can lack the tags named with a protein.
# T1: human recombinant full-length Tyro3 protein (OriGene TP308260) (human) (UniProt Q06418)
# T1 sequence: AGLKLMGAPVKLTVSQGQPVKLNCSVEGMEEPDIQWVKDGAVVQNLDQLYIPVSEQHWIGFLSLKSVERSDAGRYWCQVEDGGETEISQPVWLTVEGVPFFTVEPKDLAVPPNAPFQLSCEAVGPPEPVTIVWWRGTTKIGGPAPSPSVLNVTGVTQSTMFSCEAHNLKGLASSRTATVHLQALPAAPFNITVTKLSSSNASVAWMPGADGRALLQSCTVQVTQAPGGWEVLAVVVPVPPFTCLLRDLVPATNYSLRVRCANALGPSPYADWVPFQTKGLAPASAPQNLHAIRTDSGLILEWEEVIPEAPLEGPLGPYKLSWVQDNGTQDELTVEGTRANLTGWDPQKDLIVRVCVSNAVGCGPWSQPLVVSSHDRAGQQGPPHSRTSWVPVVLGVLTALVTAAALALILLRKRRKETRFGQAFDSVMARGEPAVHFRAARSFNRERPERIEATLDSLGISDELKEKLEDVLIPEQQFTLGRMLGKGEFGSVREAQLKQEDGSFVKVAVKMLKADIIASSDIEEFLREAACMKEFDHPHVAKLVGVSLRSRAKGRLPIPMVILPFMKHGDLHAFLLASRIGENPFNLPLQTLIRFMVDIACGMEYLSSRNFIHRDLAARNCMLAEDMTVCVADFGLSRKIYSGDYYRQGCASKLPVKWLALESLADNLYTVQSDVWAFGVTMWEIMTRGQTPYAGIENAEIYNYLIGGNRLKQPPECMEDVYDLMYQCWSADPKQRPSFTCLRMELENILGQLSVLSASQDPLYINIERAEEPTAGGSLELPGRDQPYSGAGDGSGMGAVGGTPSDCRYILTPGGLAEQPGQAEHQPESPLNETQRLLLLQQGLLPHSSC
# T2: Tyro3 ECD Ig1-Ig2-FNIII 1 (human) (UniProt Q06418)
# T2 sequence (fragment): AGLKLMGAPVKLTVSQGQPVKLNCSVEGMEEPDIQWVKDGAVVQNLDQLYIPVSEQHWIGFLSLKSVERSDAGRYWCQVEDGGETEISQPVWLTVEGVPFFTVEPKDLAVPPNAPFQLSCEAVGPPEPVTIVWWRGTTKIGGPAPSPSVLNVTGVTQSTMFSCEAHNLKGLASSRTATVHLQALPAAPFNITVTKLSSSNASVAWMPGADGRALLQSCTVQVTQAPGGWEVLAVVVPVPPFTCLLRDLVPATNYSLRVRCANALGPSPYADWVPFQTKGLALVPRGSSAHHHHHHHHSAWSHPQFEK
# T3: immunoglobulin-like domain Ig-2 of human Tyro3 (human) (UniProt Q06418)
# T3 sequence: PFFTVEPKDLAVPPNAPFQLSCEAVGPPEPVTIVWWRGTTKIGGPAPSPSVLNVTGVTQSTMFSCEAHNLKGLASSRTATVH
# T4: cynomolgus Tyro3 ECD, His-Strep tagged
# T4 construct: also called cyno TYRO3 ECD 8hisstrep
# T4 extracellular domain: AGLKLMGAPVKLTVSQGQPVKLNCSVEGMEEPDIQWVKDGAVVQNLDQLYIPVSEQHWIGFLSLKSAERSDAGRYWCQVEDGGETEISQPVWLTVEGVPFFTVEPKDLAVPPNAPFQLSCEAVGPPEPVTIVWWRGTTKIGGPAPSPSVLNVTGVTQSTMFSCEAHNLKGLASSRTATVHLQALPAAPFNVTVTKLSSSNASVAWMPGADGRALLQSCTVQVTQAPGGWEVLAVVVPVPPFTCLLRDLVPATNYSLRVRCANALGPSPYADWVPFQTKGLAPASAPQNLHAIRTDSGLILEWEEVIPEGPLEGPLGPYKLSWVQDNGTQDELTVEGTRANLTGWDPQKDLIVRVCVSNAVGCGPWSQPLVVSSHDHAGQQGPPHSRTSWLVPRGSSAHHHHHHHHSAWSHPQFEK
# Legend:
# [1] = target: T1, human recombinant full-length Tyro3 protein (OriGene TP308260) (human); assay: ELISA, full-length Tyro3 coated 2.5 µg/mL, scFv 10 µg/mL, anti-His-HRP
# [2] = target: T2, Tyro3 ECD Ig1-Ig2-FNIII 1 (human); assay: sandwich ELISA, Strep-tagged fragment captured on StrepMAB plate, scFv 10 µg/mL (Table 17), anti-FLAG-HRP
# [3] = target: T3, immunoglobulin-like domain Ig-2 of human Tyro3 (human); assay: double sandwich ELISA on captured fragments of hTyro3 ECD
# [4] = target: T4, cynomolgus Tyro3 ECD, His-Strep tagged; assay: sandwich ELISA, Strep-tagged cynomolgus Tyro3 ECD captured on StrepMAB plate, IgG 3-fold from 3 µg/mL, anti-human IgG1-HRP
# Experimental: A double sandwich ELISA was developed. This assay consisted in measuring the binding of the anti-Tyro3 antibodies to be tested on immobilized strep-tagged entire human Tyro3 ECD captured directly on ELISA plate pre-coated with an anti-strep mAb (StrepMAB-Immo coated microplates from IBA biotech). Briefly, the 96 wells of StrepMAB-Immo coated microplate were washed three times with 300 μL of the PBS Tween 0.2% (referred as ELISA washing solution). The capture of an excess of purified strep tagged hTyro3 ECD protein was achieved by a one hour incubation at room temperature. In these experiments, 3 μg of purified protein diluted in PBS, BSA 1% (referred as ELISA diluent solution) were immobilized per well. The wells were washed three times with 300 μL of the washing solution. The non-specific binding sites on the well surface were blocked during 60 min at room temperature with 200 μL/well of blocking solution (PBS, BSA 3%). The wells were washed five times with 300 μL of the washing solution. Then, 100 μl (in duplicates) of the different concentrations of anti-Tyro3 antibodies to be tested diluted in ELISA diluent solution, were added per well and allowed to incubate during 1 hour at room temperature. An Irrelevant control IgG2656 was also added in this experiment. For anti-Tyro3 antibodies in the ScFv format, experiments were performed with 6 concentrations in duplicates (FIG. 3A). […]
binder,measurement,setting,value
"anti-Tyro3 scFv 2414 (scFv, V domains shown, Tested as a single-chain Fv made in E. coli) VH: EVQLVQSGADVKKPGASLTISCQASGYTFTDYWISWVRQKPGKGLEWMGQINRHASNTMYGPSFQGHVTISADRSTATAYLQWRSLEASDTAMYYCVRSGGATSGGTIPEYYQHWGPGTLVTVSS VL: SYELTQPPSVSVSPGQTARITCSGDALPKKYAYWYQQKSGQAPVLVIYEDWKRASGIPERFSGSSSGTMATLTISGAQVEDEADYYCYSQERKGNYFVFGGGTKLTVL",binding,[1],binds
same,binding,[2],binds
"anti-Tyro3 scFv 2410 (scFv, V domains shown, Tested as a single-chain Fv made in E. coli) VH: EVQLVQSGADVKKPGASLTISCQASGYTFTDYWISWVRQKPGKGLEWMGQIVPRASRTNYGPSFQGHVTISADRSTATAYLQWRSLEASDTAMYYCVRPYFQTSGGTIPEYYQHWGPGTLVTVSS VL: SYELTQPPSVSVSPGQTARITCSGDALPKKYAYWYQQKSGQAPVLVIYEDEKRASGIPERFSGSSSGTMATLTISGAQVEDEADYYCYSQERNGNYAVFGGGTKLTVL",binding,[1],binds
same,binding,[2],binds
"anti-Tyro3 scFv 2415 (scFv, V domains shown, Tested as a single-chain Fv made in E. coli) VH: EVQLVQSGADVKKPGASLTISCQASGYTFTDYWISWVRQKPGKGLEWMGQIRGPASATHYGPSFQGHVTISADRSTATAYLQWRSLEASDTAMYYCVRHQQQTSGGTIPEYYQHWGPGTLVTVSS VL: SYELTQPPSVSVSPGQTARITCSGDALPKKYAYWYQQKSGQAPVLVIYEDKKRISGIPERFSGSSSGTMATLTISGAQVEDEADYYCYSTSTGGNYMVFGGGTKLTVL",binding,[3],binds
same,binding,[1],binds
same,binding,[2],binds
"anti-Tyro3 scFv 2709 (scFv, V domains shown, Tested as a single-chain Fv made in E. coli) VH: EVQLVQSGADVKKPGASLTISCQASGYTFTDYWISWVRQKPGKGLEWMGAISRNGSTTYYGPSFQGHVTISADRSTATAYLQWRSLEASDTAMYYCVRSGGLTSGGTIPEYYQHWGPGTLVPVSS VL: SYELTQPPSVSVSPGQTARITCSGDALPKKYAYWYQQKSGQAPVLVIYEDKKRVSGIPERFSGSSSGTMATLTISGAQVEDEADYYCYSLAVDGNYGVFGGGTKLTVL",binding,[1],binds
same,binding,[2],binds
"anti-Tyro3 scFv 2711 (scFv, V domains shown, Tested as a single-chain Fv made in E. coli) VH: EVQLVQSGADVKKPGASLTISCQASGYTFTDYWISWVRQKPGKGLEWMGQIRGQHSSTLYGPSFQGHVTISADRSTATAYLQWRSLEASDTAMYYCVRHGASTSGGTIPEYYQHWGPGTLVTVSS VL: SYELTQPPSVSVSPGQTARITCSGDALPKKYAYWYQQKSGQAPVLVIYEDAKRSSGIPERFSGSSSGTMATLTISGAQVEDEADYYCYSLSDSGNYFVFGGGTKLTVL",binding,[3],binds
same,binding,[1],binds
same,binding,[2],binds
"anti-Tyro3 scFv 2713 (scFv, V domains shown, Tested as a single-chain Fv made in E. coli) VH: EVQLVQSGADVKKPGASLTISCQASGYTFTDYWISWVRQKPGKGLEWMGRISRHGSQTYYGPSFQGHVTISADRSTATAYLQWRSLEASDTAMYYCVRAGGQTSGGTIPEYYQHWGPGTLVTVSS VL: SYELTQPPSVSVSPGQTARITCSGDALPKKYAYWYQQKSGQAPVLVIYEDHKRASGIPERFSGSSSGTMATLTISGAQVEDEADYYCYSISPAGNYGVFGGGTKLTVL",binding,[3],binds
same,binding,[1],binds
same,binding,[2],binds
"anti-Tyro3 scFv 2717 (scFv, V domains shown, Tested as a single-chain Fv made in E. coli) VH: EVQLVQSGADVKKPGASLTISCQASGYTFTDYWISWVRQKPGKGLEWMGEIFLPPSTTVYGPSFQGHVTISADRSTATAYLQWRSLEASDTAMYYCVRQTRLTSGGTIPEYYQHWGPGTLVTVSS VL: SYELTQPPSVSVSPGQTARITCSGDALPKKYAYWYQQKSGQAPVLVIYEDNKRGSGIPERFSGSSSGTMATLTISGAQVEDEADYYCYSKSPEGNYMVFGGGTKLTVL",binding,[1],binds
same,binding,[2],binds
"anti-Tyro3 scFv 2411 (scFv, V domains shown, Tested as a single-chain Fv made in E. coli) VH: EVQLVQSGADVKKPGASLTISCQASGYTFTDYWISWVRQKPGKGLEWMGSITRSSSRTHYGPSFQGHVTISADRSTATAYLQWRSLEASDTAMYYCVRGYTHLRTWGPGTLVTVSS VL: SYELTQPPSVSVSPGQTARITCSGDALPKKYAYWYQQKSGQAPVLVIYEDSKRSSGIPERFSGSSSGTMATLTISGAQVEDEADYYCYSANQRGNYMVFGGGTKLTVL",binding,[3],binds
same,binding,[1],binds
same,binding,[2],binds
"anti-Tyro3 scFv 2412 (scFv, V domains shown, Tested as a single-chain Fv made in E. coli) VH: EVQLVQSGADVKKPGASLTISCQASGYTFTDYWISWVRQKPGKGLEWMGRIRPLLSHTMYGPSFQGHVTISADRSTATAYLQWRSLEASDTAMYYCVRSWLATSGGTIPEYYQHWGPGTLVTVSS VL: SYELTQPPSVSVSPGQTARITCSGDALPKKYAYWYQQKSGQAPVLVIYEDAKRVSGIPERFSGSSSGTMATLTISGAQVEDEADYYCYSASANGNYRVFGGGTKLTVL",binding,[3],binds
same,binding,[1],binds
same,binding,[2],binds
"anti-Tyro3 scFv 2413 (scFv, V domains shown, Tested as a single-chain Fv made in E. coli) VH: EVQLVQSGADVKKPGASLTISCQASGYTFTDYWISWVRQKPGKGLEWMGRIHTYQSSTRYGPSFQGHVTISADRSTATAYLQWRSLEASDTAMYYCVRHHSTTTANPYSSWGPGTLVTVSS VL: SYELTQPPSVSVSPGQTARITCSGDALPKKYAYWYQQKSGQAPVLVIYEDDKRLSGIPERFSGSSSGTMATLTISGAQVEDEADYYCYSTEINGNYAVFGGGTKLTVL",binding,[3],binds
same,binding,[1],binds
same,binding,[2],binds
"IgG2411 (antibody, V domains shown, also called IGX2411) VH: EVQLVQSGADVKKPGASLTISCQASGYTFTDYWISWVRQKPGKGLEWMGSITRSSSRTHYGPSFQGHVTISADRSTATAYLQWRSLEASDTAMYYCVRGYTHLRTWGPGTLVTVSS VL: SYELTQPPSVSVSPGQTARITCSGDALPKKYAYWYQQKSGQAPVLVIYEDSKRSSGIPERFSGSSSGTMATLTISGAQVEDEADYYCYSANQRGNYMVFGGGTKLTVL",binding,[4],binds

# Source: patent US20180105596A1 (ELSALYS BIOTECH, published 2018)
